Results: patent US20230086303A1 (priority 2016, published 2023)

How the values were obtained:
[1] = in vivo; cited from earlier work
[2] = Projected steady-state pharmacokinetics, once-weekly transdermal vs 10 mg oral donepezil; settings: at steady state

For COc1cc2c(cc1OC)C(=O)C(CC1CCN(Cc3ccccc3)CC1)C2 (centres unmarked) [donepezil], the half-life [1] is listed as “greater than 48 hours” and the “Geometric mean Cmin” value [2] is listed as 30.8 ng/mL.
